No constants are given. Whether binding was seen depends on the method and setting. Binding can be weak; no strength is given.
Key:
[1] = molecular target: TIM3 protein (cat #CHI-MF-210T3-0050, Chimerigen); assay: SPR, TIM3 sensor chip
[2] = molecular target: TIM3 protein (cat #CHI-MF-210T3-0050, Chimerigen); assay: SPR, TIM3 protein immobilised on the sensor chip

binding [1]: binds
binding [2]: binds
Binder: GLIPLTTMHIGK [P26-12-peptide (targeting TIM3)]
